Laboratory results taken from patent publication US6399658B1, “Composition containing ascorbic acid” (Sumitomo Pharmaceuticals Co., Ltd., priority 1996, dated 2002).

Test system: rat hepatocytes primary culture
Test: Inhibition of gluconeogenesis in rat hepatocytes primary culture
Type: cell-based
Conditions: 6 hr; for Glucose levels in the medium: Hanks solution containing 0.1% fructose
Protocol: Hepatocytes were isolated from a male Wistar rat. The isolated hepatocytes were grown on gelatin coated 24-well plate (3×10^5 cells/well) in Williams E medium containing 10 nM dexamethasone and 5% fetal calf serum under the 37° C., 5% CO2/95% air condition for 24 hr.
After the plates of hepatocytes primary culture were washed by phosphate buffer twice, the medium were changed to Hanks solution containing 0.1% fructose (depletion glucose). […] Glucose levels (mg/dL) in the medium were measured.

CN(C)C(=N)NC(=N)N.Cl [Metformin hydrochloride, 1,1-dimethylbiguanide hydrochloride]
Glucose levels in the medium (1 mM (each 1 mM for the combination)): 17.7 mg/dL
Glucose levels in the medium (3 mM (each 3 mM for the combination)): 15.2 mg/dL
Effect on gluconeogenesis (in words) (1 or 3 mM): Gluconeogenesis was reduced
